# Patent publication US20060282909A1
# Protein sequences, listed by entry. Tags and fused reporters are not part of them. Lines headed by an entry give the natural chain unless they say otherwise; changes in a name come on top.
# UniProt P04386: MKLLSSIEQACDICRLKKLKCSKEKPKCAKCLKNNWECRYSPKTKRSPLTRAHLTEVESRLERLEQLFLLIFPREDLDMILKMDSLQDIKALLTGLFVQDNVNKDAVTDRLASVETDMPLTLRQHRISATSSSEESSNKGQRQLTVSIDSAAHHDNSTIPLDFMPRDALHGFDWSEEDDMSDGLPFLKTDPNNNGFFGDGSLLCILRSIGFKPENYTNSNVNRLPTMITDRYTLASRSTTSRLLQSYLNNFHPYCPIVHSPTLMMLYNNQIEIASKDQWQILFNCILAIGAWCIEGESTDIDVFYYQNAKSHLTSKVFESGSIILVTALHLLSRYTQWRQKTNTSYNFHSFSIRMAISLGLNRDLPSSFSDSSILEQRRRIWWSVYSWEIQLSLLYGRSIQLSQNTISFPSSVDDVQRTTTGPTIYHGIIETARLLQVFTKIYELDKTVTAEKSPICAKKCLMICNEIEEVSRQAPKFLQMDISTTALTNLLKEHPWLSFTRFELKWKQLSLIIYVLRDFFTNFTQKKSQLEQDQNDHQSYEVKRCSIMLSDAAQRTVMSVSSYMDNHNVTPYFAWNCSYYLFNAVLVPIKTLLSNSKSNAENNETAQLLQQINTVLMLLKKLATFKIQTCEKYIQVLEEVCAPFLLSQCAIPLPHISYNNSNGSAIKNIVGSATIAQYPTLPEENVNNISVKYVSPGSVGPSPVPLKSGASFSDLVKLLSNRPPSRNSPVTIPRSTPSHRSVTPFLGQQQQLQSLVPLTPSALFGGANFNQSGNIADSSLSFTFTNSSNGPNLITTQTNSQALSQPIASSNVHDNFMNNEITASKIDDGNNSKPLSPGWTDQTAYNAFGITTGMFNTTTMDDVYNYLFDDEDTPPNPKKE
# UniProt Q08369: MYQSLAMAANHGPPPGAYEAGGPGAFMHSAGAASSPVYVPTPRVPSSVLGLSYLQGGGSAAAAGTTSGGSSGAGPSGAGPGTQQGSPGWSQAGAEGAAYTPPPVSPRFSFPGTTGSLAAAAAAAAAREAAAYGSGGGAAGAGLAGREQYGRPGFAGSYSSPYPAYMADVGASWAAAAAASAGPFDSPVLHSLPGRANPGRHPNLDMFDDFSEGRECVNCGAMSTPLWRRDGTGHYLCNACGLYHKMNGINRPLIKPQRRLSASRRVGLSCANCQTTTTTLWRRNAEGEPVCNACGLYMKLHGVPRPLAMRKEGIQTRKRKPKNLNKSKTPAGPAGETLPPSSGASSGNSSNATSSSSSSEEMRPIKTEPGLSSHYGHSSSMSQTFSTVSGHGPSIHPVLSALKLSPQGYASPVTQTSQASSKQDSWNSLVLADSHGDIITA
# Results are given in words; binding and its absence hold for the method and conditions named. Some results given as binding are weak or reduced against the parent protein; the word gives no strength.
# B1: full length NF-AT3 (protein)
# chain: MGAASCEDEELEFLLVFGEELEAPPLGAGGLGEELDSEDAPPCCRLALGEPPPYGAAPIGIPRPPPPRPGMHSPPPRPAPSPGTWESQPARSVRLGGPGGGAGGAGGGRVLECPSIRITSISPTPEPPAALEDNPDAWGDGSPRDYPPPEGFGGYREAGAQGGGAFFSPSPGSSSLSSWSFFSDASDEAALYAACDEVESELNEAASRFGLGSPLPSPRASPRPWTPEDPWSLYGPSPGGRGPEDSWLLLSAPGPTPASPRPASPCGLRRYSSSGTPSSASPALSRRGSLGEEGSEPPPPPPLPLARDPGSPGPFDYVGAPPAESIPQLTRRTSSEQAVALPRSEEPASCNGLLPLGAEESVAPPGGSRKEVAGMDYLAVPSPLAWSLARIGGHSPIFRTSALPPLDWPLPSQYEQLELRIEVQPRAHHRAHYETEGSRGAVLAAPGGHPVVLLLGYSELPLTLQMFIGTADERNLRPHAFYQVHRITGLMVATASYEAVVSGTLVLEMTLLPENNMAANIDCAGILLLRNSDIELRKGETDIGRKNTRVRLVFRVHVPQGGGLVVSVQAASVPIECSQRSAQELPQVEAYSPSACSVRGGEELVLTGSNFLPDSLVVFIERGPDGLLQWEEEATVNRLQSNEVTLTLTVPEYSNLRVSRPVQVYFYVSNGRRKRSPTQSFRFLPVICLEEPLPDSSLRGFPSASATPFGTDMDFSPPRPPYPSYPHEDPACETPYLSEGFGYGMPPLYPQTGPPPSYRPGLRMFPETRGTTGCAQPPAVSFLPRPFPSDPYGGRGSSFPLGLPFSPPAPFRPPPLPASPPLEGPFPSQSDVHPLPAEGYNLVGPGYGPGEGAPEQELSRGGYSSGFRDSVPIQGITLEEVSEIIGRDLSGFPAPPGEEPPA
# Target: GATA4 bait: amino acids 130-409 of GATA4 fused in-frame with the GAL4 DNA binding domain (pAS-GATA4) (yeast) (UniProt P04386+Q08369)
# Test: mammalian two-hybrid transfection assay
binder,measurement,value
B1,binding,binds
